Laboratory results published in PubChem BioAssay AID2685 (National Center for Advancing Translational Sciences (NCATS), 2010).
The other results are listed elsewhere or left out. Shown are side measurements of this screen, not its main read-out; they come without a call. Compounds called inactive in the main read-out are mostly missing here. Potencies come from curve fits of mixed quality, noted in brackets.

Test: qHTS Assay for Lipid Storage Modulators in Drosophila S3 Cells;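 as to cell number change: cells counted by Cell Tracker Red CMTPX staining in the red channel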
Settings: BODIPY lipid droplet fluorescence, 18-24 h; for cell number change: measured here: cell count max response, cells fed with added oleic acid
How it was run: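 Drosophila S3 cells got compounds at several concentrations plus oleic acid (400 uM solution). Laser-scanning cytometry with 488 nm excitation read lipid droplets at 500-530 nm and cells at 575-640 nm. Percent activity was relative to 20 uM Triacsin C.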

[1] = measured here: cell number channel AC50, cells fed with added oleic acid
[2] = measured here: lipid fluorescence (Fed channel) AC50, cells fed with added oleic acid

| SMILES | cell number change | AC50 [1] | AC50 [2] |
| --- | --- | --- | --- |
| O=C(Nc1nc2ccc(S(=O)(=O)N3CCCCC3)cc2s1)c1cccnc1 | 71.1% | 29.1 µM [rising, single point] | 6.51 µM [falling, single point] |
| O=C(CSc1nc(=O)n(CCCN2CCOCC2)c2c1CCCC2)Nc1ccc(F)cc1F | 5.15% | – | 29.1 µM [rising, single point] |
| N=c1c2c(ncn1Cc1ccco1)Oc1cc(O)ccc1C2c1ccccc1 (stereo unspecified) | -30.2% | 0.411 µM [falling, full curve, poor fit] | 10.3 µM [falling, partial curve, poor fit] |
| O=C(CSc1nnc(-c2cccnc2)n1-c1ccc(SC(F)F)cc1)N1CCCc2ccccc21 | -30.8% | 20.6 µM [falling, single point] | 0.00461 µM [falling, full curve, poor fit] |
| O=c1oc2ccccc2c(Nc2ccc(O)cc2)c1[N+](=O)[O-] | -24% | – | 4.11 µM [falling, partial curve, poor fit] |
| CCOC(=O)C1=C(COC(=O)/C=C/c2cccc(OC)c2)NC(=O)NC1C (stereo unspecified) | -13.5% | – | – |
| Cn1c(SCC(=O)N2CCCc3ccccc32)nc2ccccc2c1=O | -56.1% | 25.9 µM [falling, partial curve, poor fit] | 25.9 µM [falling, partial curve] |
| CCc1noc(C)c1C(=O)NC1CCCc2c1cnn2-c1cc(C)cc(C)c1 (stereo unspecified) | -19.9% | – | – |
| O=C(OC1CCOC1=O)c1ccc2ccccc2n1 (stereo unspecified) | -12.7% | – | 29.1 µM [falling, partial curve] |
| Cc1nc(Cl)c(C(=O)Nc2cccc(F)c2)c(C)c1Cl | -0.155% | – | 2.06 µM [rising, partial curve, poor fit] |
| Cc1ccc(C(=O)Cn2nnc(-c3ccccc3)n2)cc1 | 57.2% | 29.1 µM [rising, single point] | 0.651 µM [falling, single point] |
| CC(C)(C)c1ccc(/C=C/C(=O)N2CCCCC2)cc1 | -12.7% | – | 8.2 µM [falling, partial curve] |
| Cc1nn(-c2ccccc2)c(C)c1NC(=O)COC(=O)c1ccc(Cl)c(S(N)(=O)=O)c1 | 6.08% | – | – |
| O=C(NCc1ccncc1)c1cc(C(=O)C2CC2)c[nH]1 | – | 4.61 µM [rising, partial curve] | – |
| CCCCOc1ccccc1N1CCN(CCCN2C(=O)C3CCCN3C2=O)CC1 (stereo unspecified) | -3.04% | – | 29.1 µM [falling, single point] |
| NC1=C(c2ccc([N+](=O)[O-])cc2)C(=O)CO1 | -17.6% | – | 3.66 µM [rising, single point] |
| Cc1ncc([N+](=O)[O-])n1CC(=O)Nc1ccccc1F | -1.05% | – | – |
| C=CCOC(=O)C1=C(C)OC(N)=C(C#N)C1c1ccccc1F (stereo unspecified) | – | 2.31 µM [rising, partial curve] | – |
| CCOC(=O)c1c(C)[nH]c(C2=NNC(=Nc3cccc(Cl)c3)SC2)c1C | -8.78% | – | 0.411 µM [falling, full curve] |
| COc1ccc(N=CC2=C(O)c3ccccc3C2=O)cc1 | 9.99% | – | 3.66 µM [rising, single point] |
| CC(C)OCCCn1c(=S)[nH]c2ccc(N3CCOCC3)cc2c1=O | – | 0.58 µM [rising, single point] | 0.58 µM [rising, single point] |

| SMILES | cell number change | AC50 [1] | AC50 [2] |
| --- | --- | --- | --- |
| O=C(Nc1ccc2c(c1)Cc1ccccc1-2)c1ccc(Br)o1 | -37.7% | 29.1 µM [falling, single point] | 25.9 µM [falling, single point] |
| N#CCSc1nnc(COc2cccc3ccccc23)n1-c1ccccc1 | -23.6% | – | – |
| Cc1ccc(-c2nc(CS(=O)CC(=O)NCCN3CCCC3)c(C)o2)cc1 (stereo unspecified) | -42.7% | 16.4 µM [falling, partial curve, poor fit] | 23.1 µM [falling, partial curve] |
| COC(=O)CSc1nc(-c2cccs2)ccc1C#N | 0.625% | – | – |
| CCNC(=O)c1ccc(NC(=O)CC2SC(N3CCCC3)=NC2=O)cc1 (stereo unspecified) | -50% | 29.1 µM [falling, single point] | – |
| COc1ccc(OCc2cc(=O)[nH]c3ccccc23)cc1 | 6.67% | 0.00461 µM [rising, full curve, poor fit] | – |
| CC(C)NC(=S)NC(=O)c1ccc(Cl)cc1Cl | 2.88% | – | 4.61 µM [rising, single point] |
| CN(CC(=O)Nc1ccccc1Cl)C(=O)CSc1nncn1C | -12.8% | – | 3.26 µM [falling, single point] |
| Cn1cc([C@@H]2C[C@H]3CN(C4CCCC4)C(=O)[C@]34CCCN24)c(-c2ccccc2)n1 | -32.6% | 8.2 µM [falling, partial curve] | 7.31 µM [falling, partial curve] |
| CCN(CC)C(=S)Sc1c(-c2ccccc2)c2cc(Cl)ccc2[nH]c1=O | -32.2% | 25.9 µM [falling, single point] | 0.291 µM [falling, partial curve, poor fit] |
| O=C1CN(C(=O)/C=C/c2ccc(Cl)cc2Cl)CCN1 | 7.43% | – | 0.731 µM [falling, single point] |
| CN1CCc2nc(SCCOc3ccccc3)c(C#N)cc2C1 | – | 4.61 µM [rising, single point] | 0.58 µM [rising, single point] |
| COc1ccc2cc(C(=O)C3CCCN(Cc4ccccn4)C3)ccc2c1 (stereo unspecified) | – | – | 29.1 µM [rising, single point] |
| COc1cc([C@H]2[C@@H]3CCCC[C@]3(O)CCN2CC(=O)Nc2ccc(C)cc2C)ccc1O | 3.78% | – | 1.64 µM [rising, partial curve] |
| COc1cccc(NC(=O)C2CCCN2C(=O)OCc2ccccc2)c1 (stereo unspecified) | – | 4.11 µM [rising, single point] | – |
| CC1CCCCC1NC(=O)c1cn(C)c2ccc(S(=O)(=O)N3CCOCC3)cc2c1=O (stereo unspecified) | -9.16% | – | 29.1 µM [rising, partial curve] |
| S=C(NCCc1ccccc1)N/N=C/c1ccc(Cl)cc1 | 12% | – | – |
| O=C(CNc1ccccc1)Nc1ccc(F)cc1 | 7.34% | – | 14.6 µM [rising, partial curve, poor fit] |
| Cc1ccc(-c2c(C(=O)N/N=C/c3c[nH]c4ccccc34)nnn2-c2nonc2N)cc1 | – | – | 18.4 µM [falling, partial curve] |
| CC(=O)N1CCCc2cc(S(=O)(=O)N3CCCC(C(=O)Nc4ccccc4C)C3)ccc21 (stereo unspecified) | 12.5% | – | 29.1 µM [rising, single point] |
| Cc1cc(S(=O)(=O)NC(C)C)ccc1OCC(=O)Nc1ccc2c(c1)OCCO2 | -14.3% | – | 0.082 µM [falling, full curve, poor fit] |

| SMILES | cell number change | AC50 [1] | AC50 [2] |
| --- | --- | --- | --- |
| CCN1C2=NCCCN2c2ccccc21 | -37.7% | 3.66 µM [falling, full curve] | 8.2 µM [falling, partial curve] |
| CC1(C)CC(=O)c2cnc(NCc3ccco3)nc2C1 | – | 6.51 µM [rising, single point] | – |
| CCOc1cc(CO)cc(Br)c1OCC(N)=O | -10.8% | 0.00461 µM [falling, full curve, poor fit] | – |
| Cc1cccc(-c2c3c(=O)n(C)c(=O)n(C)c3cn2-c2ccccc2O)c1 | -18.9% | – | – |
| S=C(Nc1cccnc1)Nc1ccccc1Br | 133% | – | – |
| CO/N=C(\C)C(Cc1ccc(Cl)nc1)Cc1ccc(Cl)nc1 | 5.79% | – | 29.1 µM [rising, partial curve] |
| CCCn1c2ccccc2c2nnc(SCC(=O)Nc3ncccn3)nc21 | – | – | 0.82 µM [rising, single point] |
| COc1cc2c(cc1OC)C(c1ccccc1)N(C(=O)c1ccccc1)CC2 (stereo unspecified) | 15.2% | – | – |
| O=C(Nc1ccc(NC(=O)C2CCCCC2)nc1)c1cccs1 | -17.9% | – | 29.1 µM [falling, single point] |
| CC1(C)Cc2cccc(OCC(=O)N3CCN(c4cccc(Cl)c4)CC3)c2O1 | – | 0.206 µM [falling, full curve, poor fit] | – |
| C=C(C)CCOC(=O)C(CC(=O)O)NCc1ccco1 (stereo unspecified) | -12.9% | – | 0.00461 µM [falling, full curve, poor fit] |
| O=C(NC1CCN(Cc2ccccc2)CC1)c1cn(-c2ccccc2)nc1-c1cccnc1 | 6.68% | – | – |
| C=C[C@@H]1c2c(F)cccc2N(S(=O)(=O)c2ccc(C)cc2)[C@H](c2ccc(C(=O)OC)cc2)C1(C#N)C#N | -9.51% | – | 0.731 µM [falling, single point] |
| O=C(Nn1c(COc2ccccc2)nc2ccccc2c1=O)C(Cl)(Cl)Cl | – | 7.31 µM [falling, single point] | – |
| CNc1cc(N2CCN(S(=O)(=O)N(C)C)CC2)ccc1[N+](=O)[O-] | -27.2% | 0.13 µM [falling, full curve, poor fit] | 0.13 µM [falling, full curve] |
| Cc1oc(-c2ccc(Cl)cc2)nc1CN1CCCC(C(=O)N2CCOCC2)C1 (stereo unspecified) | 24.8% | – | – |
| CN(C)c1ccc(C2CC(=O)NC3=C2C(=O)CC(C)(C)C3)cc1 (stereo unspecified) | 7.22% | – | – |
| CSc1cccc(NS(=O)(=O)c2ccc3c(c2)NC(=O)C(C)C(=O)N3)c1 (stereo unspecified) | 0.576% | – | 0.651 µM [rising, full curve, poor fit] |
| CCOc1cc(C)ccc1OCc1nnc(SCC(=O)Nc2cccc(C(=O)O)c2)n1-c1ccccc1 | 51.9% | – | 29.1 µM [rising, single point] |

Looked up above.
Value of O=C(Nc1ccc(NC(=O)C2CCCCC2)nc1)c1cccs1 under cell number change: -17.9%
Value of O=C(Nn1c(COc2ccccc2)nc2ccccc2c1=O)C(Cl)(Cl)Cl under AC50 [1]: 7.31 µM [falling, single point]
Value of C=C(C)CCOC(=O)C(CC(=O)O)NCc1ccco1 (stereo unspecified) under cell number change: -12.9%

Full records, quoted from the list. Values in the order: cell number change | AC50 [1] | AC50 [2]
CCOc1cc(CO)cc(Br)c1OCC(N)=O as listed: -10.8% | 0.00461 µM [falling, full curve, poor fit] | –
CCN1C2=NCCCN2c2ccccc21 as listed: -37.7% | 3.66 µM [falling, full curve] | 8.2 µM [falling, partial curve]
